# Test results published in PubChem BioAssay AID624297 (National Center for Advancing Translational Sciences (NCATS), 2012).
# About 6,200 (1.8%) of roughly 340,000 compounds were called active. The shares of active, inactive and inconclusive entries below differ from those in the screen. Calls come from the whole dose curve; as a rule, active = well fitted activation curve with a large enough effect; inconclusive = small, poorly fitted or top-dose-only effect; inactive = no such curve, though single readings can be large or run the other way. Potencies of inconclusive entries are doubtful fits and often do not repeat.
# Test: A quantitative high throughput screen for small molecules that induce DNA re-replication in SW480 colon adenocarcinoma cells. For re-replication activation: % of control where 0% means no effect. Note: nearly all actives have a fitted effect of over 55% in size.
# Settings: Hoechst DNA content imaging, 48 h; re-replication activation: at 46.1 µM (top of the series) unless noted
# In short: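 First, 250 cells per well were seeded. Next, compound or vehicle (23 nL) was pinned in, plates sat 48 hr at 37 C. Finally Hoechst was added for 40 min before fluorescence scanning.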
# Potency is the fitted concentration of half-maximal effect.
Structure (SMILES),Potency,re-replication activation
NC(=O)c1cc(N)ccc1N1CCCC1,"inconclusive: 0.631 µM [activator, partial curve, poor fit]",–
CCN(CC)CCCNC1=C(Cl)C(=O)c2ccccc2C1=O,"inconclusive: 3.66 µM [activator, full curve, poor fit]",–
COc1ccc(NC(=O)Nc2cccc3c2O[C@H](CN(C)C(=O)Nc2ccccc2)[C@@H](C)CN([C@H](C)CO)C3=O)cc1,–,inactive: 3.83%
Cc1ccc(S(=O)(=O)NCc2ccccc2)cc1,"inconclusive: 1.84 µM [activator, partial curve, poor fit]",–
Cc1ccc(-c2nc3ccccc3s2)cc1NC(=S)NC(=O)/C=C/c1ccco1,"inconclusive: 16.4 µM [activator, single point]",–
COC(=O)c1ccc2c(c1)c(C#Cc1ccccc1)c(-c1ccccc1)n2C,"inconclusive: 1.16 µM [activator, full curve, poor fit]",–
CCCCN(C)C(=O)C1CCCN(S(=O)(=O)c2ccc3c(c2)CC(C)N3C(=O)C2CC2)C1 (stereo not given),"inconclusive: 0.116 µM [activator, full curve, poor fit]",–
O=C(O)/C=C/C(O)c1ccc(Cl)cc1 (stereo not given),"inconclusive: 0.164 µM [activator, single point]",–
CC12CCC(C(=O)Nc3ccc(Br)cn3)(OC1=O)C2(C)C (stereo not given),"inconclusive: 29.1 µM [activator, partial curve, poor fit]",–
O=C(Nc1ccccc1N1CCCCC1)c1ccc(N2C(=O)c3ccccc3C2=O)cc1,"inconclusive: 6.51 µM [activator, single point]",–
O=C(c1cc(-c2cccs2)nc2ccccc12)N1CCN(c2ccccc2O)CC1,"inconclusive: 29.1 µM [activator, partial curve, poor fit]",–
O=C(c1ccccc1)N1N=C(c2ccccc2O)CC1c1ccc(Br)cc1 (stereo not given),–,inactive: -5.14%
O=C(Nc1cccc(-c2ccc(N3CCCCC3)nn2)c1)c1ccc(Br)o1,–,inactive: -3.53%
COc1ccc(C(=O)Nc2sc3c(c2C#N)CCN(C(C)=O)C3)cc1,active: 23.1 µM,–
CCn1c(NCc2ccccc2NS(=O)(=O)c2ccc(C)cc2)nc2ccccc21,"inconclusive: 29.1 µM [activator, single point]",–
COC(=O)C1=C(C)NC(C)=C(C(=O)OC(C)(C)CN(C)CCC(c2ccccc2)c2ccccc2)C1c1cccc([N+](=O)[O-])c1 (stereo not given),active: 11.9 µM,–
COc1ccc(S(=O)(=O)N2CCC3(CC2)OCCN3S(=O)(=O)c2c(C)cc(C)cc2C)cc1,–,inactive: 3.67%
Cc1[nH]c(-c2ccccn2)nc(=S)c1Cl,"inconclusive: 16.4 µM [activator, single point]",–
CCN=C(NCC)SC1CC(=O)N(CCc2ccccc2)C1=O (stereo not given),"inconclusive: 29.1 µM [activator, single point]",–
Cc1cc(-c2n[nH]c(=S)n2/N=C/c2ccc(Cl)c([N+](=O)[O-])c2)n[nH]1,"inconclusive: 23.1 µM [activator, single point]",–
CC(C)N(C(C)C)S(=O)(=O)c1ccc(Cl)nc1,"inconclusive: 29.1 µM [activator, single point]",–
CC(=O)Oc1cccc(/C=C2\Sc3ccccc3C2=O)c1,"inconclusive: 23.1 µM [activator, single point]",–
CS(=O)(=O)N1CCN(c2ccc([N+](=O)[O-])cc2C(F)(F)F)CC1,"inconclusive: 0.82 µM [activator, full curve, poor fit]",–
COc1cc(/C=C/C(=O)/C=C(O)/C=C/c2ccc(O)c(OC)c2)ccc1O,active: 29.9 µM,–

Structure (SMILES),Potency,re-replication activation
O=C(CCC(=O)N1CCN(S(=O)(=O)c2ccccc2Cl)CC1)c1ccccc1,"inconclusive: 23.1 µM [activator, single point]",–
O=c1[nH]nc(N2CCOCC2)c(=O)[nH]1,"inconclusive: 20.6 µM [activator, single point]",–
COc1cc(NC(=O)COc2cccc(OC)c2)cc(OC)c1,–,inactive: 3.92%
CCOC(=S)SCC(=O)Nc1ncc(C)s1,"inconclusive: 11.6 µM [activator, partial curve, poor fit]",–
COC(=O)c1cccc(NC(=O)c2cnn(C)c2)c1,–,inactive: -11.3%
Cc1nnc(N/N=C/c2ccccn2)[nH]c1=O,active: 1.3 µM,–
CN1CCN(C(c2ccc(Br)cc2)c2cc(Cl)c3cccnc3c2O)CC1 (stereo not given),"inconclusive: 29.1 µM [activator, single point]",–
Cc1nn(CC(=O)Nc2ccccn2)c(=O)c2ccccc12,"inconclusive: 6.51 µM [activator, single point]",–
O=C1C=C(c2ccc3c(c2)oc2ccccc23)C[C@@H](c2ccc(Cl)cc2)C1,–,inactive: -9.91%
CC1(C)Cc2cccc(OCC(=O)Nc3ccccc3F)c2O1,–,inactive: -2.16%
COc1ccc(NC(=O)NNC(=O)c2ccc(Cl)cc2Cl)cc1OC,–,inactive: -2.18%
COc1ccc(NC(=O)CCc2ccccc2)cc1NC(=O)c1ccco1,–,inactive: 0.467%
CCOc1ccc(C(=O)NCC(=O)N2CC=C(c3ccccc3)CC2)cc1OCC,–,inactive: -0.144%
COc1ccc(NC(=O)CCN2C(=O)C3CC=C(Cl)CC3C2=O)cc1 (stereo not given),"inconclusive: 18.4 µM [activator, single point]",–
CN(C)c1ccc(NS(=O)(=O)c2ccc(-c3csnn3)cc2)cc1,"inconclusive: 6.51 µM [activator, partial curve, poor fit]",–
CCc1ccc(NC(=O)CN2CCCN(S(=O)(=O)c3ccc(F)cc3)CC2)cc1,–,inactive: -5.02%
Cc1ccc2nc(N(CCN(C)C)C(=O)c3cc(Cl)sc3Cl)sc2c1,–,inactive: -4.71%
CCOc1ccccc1NS(=O)(=O)c1c[nH]c(C(=O)OC)c1,"inconclusive: 29.1 µM [activator, single point]",–
CCNC(=S)N/N=C(\C)c1ccc2ccccc2c1OC(F)F,"inconclusive: 20.6 µM [activator, single point]",–
O=C(NCc1ccccc1)C(=O)NCC1COc2ccccc2O1 (stereo not given),"inconclusive: 29.1 µM [activator, single point]",–
COc1cccc(CC(=O)Nc2ccc3nc(C)sc3c2)c1,active: 9.2 µM,–
CC(=O)c1sc(Nc2nc3ccc(F)cc3s2)nc1C,active: 9.2 µM,–
N=C1SCC(=O)N1c1ncc(Cc2cccc(Cl)c2)s1,"inconclusive: 20.6 µM [activator, single point]",–
Cc1ccc2nc(-c3ccc(NC(=O)COC(=O)c4ccc(=O)[nH]c4)cc3)sc2c1,"inconclusive: 18.4 µM [activator, partial curve, poor fit]",–

# Retrieved by compound from the list above:
Structure (SMILES),Potency,re-replication activation
Cc1ccc2nc(-c3ccc(NC(=O)COC(=O)c4ccc(=O)[nH]c4)cc3)sc2c1,"inconclusive: 18.4 µM [activator, partial curve, poor fit]",–
Cc1nn(CC(=O)Nc2ccccn2)c(=O)c2ccccc12,"inconclusive: 6.51 µM [activator, single point]",–
O=C1C=C(c2ccc3c(c2)oc2ccccc23)C[C@@H](c2ccc(Cl)cc2)C1,–,inactive: -9.91%

# The list goes on.

Structure (SMILES),Potency,re-replication activation
Cc1cccc(-n2nc(C)c3c2NC2=C(C(=O)CCC2)C3c2ccccn2)c1 (stereo not given),–,inactive: 0.33%
O=C(NCc1cccnc1)c1ccc(-c2cc3ccccc3oc2=O)cc1,"inconclusive: 29.1 µM [activator, single point]",–
CN(C(=O)c1cccc(NC(=O)Cc2ccc(NC(=O)C3CCN(C(=O)CCc4ccccc4)CC3)cc2)c1)C1CCCCC1,"inconclusive: 8.2 µM [activator, partial curve, poor fit]",–
O=C1Nc2c(Cl)cc(Cl)cc2C1=O,"inconclusive: 32.6 µM [activator, partial curve, poor fit]",–
CC(C)Cc1cc(CN2CCC(CO)(Cc3cccc(C(F)(F)F)c3)CC2)[nH]n1,"inconclusive: 29.1 µM [activator, single point]",–
O=C(COC(=O)C1CC1)NCCc1ccc(Cl)cc1,active: 3.66 µM,–
CN1C(=O)c2ccc(C(=O)NCc3ccccn3)cc2C1=O,"inconclusive: 29.1 µM [activator, single point]",–
COc1ccccc1C(=O)NCC(=O)N/N=C/c1ccc2c(c1)OCO2,"inconclusive: 29.1 µM [activator, single point]",–
Cc1cccc(/C=C/C(=O)c2cc(Br)ccc(=O)c2O)c1,"inconclusive: 23.1 µM [activator, single point]",–
COc1ccc(Cl)cc1C(=O)NNC(=O)c1nn(C)c(=O)c2ccccc12,–,inactive: -7.55%
CCc1ccc2nc(N(CCCN(C)C)C(=O)c3ccc4c(c3)OCCO4)sc2c1,"inconclusive: 29.1 µM [activator, single point]",–
COc1cccc(SCc2noc(C(=O)NC(C)C)c2C(=O)NC(C)C)c1,–,inactive: -6.12%
COc1ccc(CCNCC(=O)N2C(C)CCCC2C)cc1OC (stereo not given),"inconclusive: 18.4 µM [activator, single point]",–
CN1CCN(C2=C(Cl)C(=O)c3ccccc3C2=O)CC1,active: 5.17 µM,–
CC1CN(Cc2cn(C)nc2-c2ccc(Oc3ccccc3)cc2)CCN1C (stereo not given),–,inactive: -0.184%
N#Cc1ccc(CN2CCN(c3ccc(S(=O)(=O)N4CCCC4)cn3)CC2)cc1,"inconclusive: 4.11 µM [activator, full curve]",–
Cc1ccc(C)c(S(=O)(=O)N2CCN(C(=O)Cn3c(C(F)(F)F)nc4ccccc43)CC2)c1,–,inactive: -5.6%
CC(C)(C)OC(=O)C[C@H]1C/C=C\C[C@H](CC(=O)N[C@@H](CO)Cc2ccccc2)C(=O)N[C@H](C(C)(C)C)COC1=O,"inconclusive: 16.4 µM [activator, single point]",–
CCOC(=O)C1CCN(Cc2ccc(OCc3ccccc3)cc2)CC1,–,inconclusive: 29.5% [activator]
CCOC(=O)N1CCC(NC(=O)c2sc(-n3cccc3)nc2C)CC1,–,inactive: 2.45%
CCC1CCCCN1CCCNC(=O)C1CCCN(S(=O)(=O)N2CC(C)CC(C)C2)C1 (stereo not given),"inconclusive: 4.11 µM [activator, full curve, poor fit]",–
COc1ccc(C(C[N+](=O)[O-])C2(c3ccc(OC)c(OC)c3)C(=O)c3ccccc3C2=O)cc1 (stereo not given),active: 3.26 µM,–

# A portion from the list above, for reference:
Structure (SMILES),Potency,re-replication activation
Cc1ccc2nc(-c3ccc(NC(=O)COC(=O)c4ccc(=O)[nH]c4)cc3)sc2c1,"inconclusive: 18.4 µM [activator, partial curve, poor fit]",–
Cc1cccc(-n2nc(C)c3c2NC2=C(C(=O)CCC2)C3c2ccccn2)c1 (stereo not given),–,inactive: 0.33%
